Results are given in words; binding and its absence hold for the method and conditions named. Binding seen in cells or lysates may run through a third protein. Some entries that bind do so weakly or less than the wild type.

Amino acid sequences for entries named in this document (tags omitted). Residues count along the entry.
UniProt P27512, residues 20-289: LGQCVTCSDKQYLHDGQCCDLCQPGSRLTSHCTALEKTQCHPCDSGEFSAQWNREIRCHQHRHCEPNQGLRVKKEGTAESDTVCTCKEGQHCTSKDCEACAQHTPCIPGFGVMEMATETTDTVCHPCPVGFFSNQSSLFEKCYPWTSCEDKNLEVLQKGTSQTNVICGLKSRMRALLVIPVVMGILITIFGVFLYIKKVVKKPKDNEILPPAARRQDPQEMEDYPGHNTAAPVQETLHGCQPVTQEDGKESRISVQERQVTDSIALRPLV
UniProt P0DMV8, residues 2-641: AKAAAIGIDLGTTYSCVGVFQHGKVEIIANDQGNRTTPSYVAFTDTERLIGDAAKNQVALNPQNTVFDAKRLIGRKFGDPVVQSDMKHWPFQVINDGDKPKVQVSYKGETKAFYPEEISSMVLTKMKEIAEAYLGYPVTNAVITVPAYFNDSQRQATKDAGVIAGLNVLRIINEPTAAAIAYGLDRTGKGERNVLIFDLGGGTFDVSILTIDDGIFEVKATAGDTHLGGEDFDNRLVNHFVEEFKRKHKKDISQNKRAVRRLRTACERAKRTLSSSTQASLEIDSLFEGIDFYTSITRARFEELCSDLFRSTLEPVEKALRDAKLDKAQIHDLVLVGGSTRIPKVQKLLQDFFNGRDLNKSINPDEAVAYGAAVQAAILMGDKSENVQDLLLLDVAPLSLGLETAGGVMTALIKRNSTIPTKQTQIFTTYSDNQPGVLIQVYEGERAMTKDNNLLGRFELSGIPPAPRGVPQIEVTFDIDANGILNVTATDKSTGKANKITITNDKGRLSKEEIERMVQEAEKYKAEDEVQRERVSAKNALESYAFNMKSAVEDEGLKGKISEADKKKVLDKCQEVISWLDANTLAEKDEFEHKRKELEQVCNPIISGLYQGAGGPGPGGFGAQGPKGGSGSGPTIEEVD

This experiment deals with Endogenous CD40 of LPS-stimulated murine ANA1 macrophage cells (murine) (UniProt P27512). Description: Ni-NTA-agarose pull-down from ANA1 cell extract (Hsp70 preincubated with peptide C, with or without ADP), anti-CD40 immunoblot. For orientation: Immunoblotting shows a protein as a band on a membrane.

For the substance “Recombinant human His6-tagged Hsp70 (from UniProt P0DMV8 2-641)”, the binding entry was “binds”.

For the origin of these results see US20040071656A1, “Modulation of heat-shock-protein-based immunotherapies” (priority 2001, published 2004).
